Test results from the supplement of paper PMC8728848.
Some of the results follow.

Assays:
Assay in all cases: glycan array binding signal (z-score within array); higher = stronger binding
Details in all cases: glycan notation: IUPAC condensed, linker removed
Fuc(a1-2)Gal = target: Fuc(a1-2)Gal
Procedure, shortened: (§1)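 Glycan array data were curated from 3228 arrays in the Consortium for Functional Glycomics database and kept only where the protein sequence was available. Glycan names were converted to IUPAC-condensed notation, and columns mapping to the same glycan were averaged. The binding signal is a within-array Z-score, averaged across arrays of the same protein sequence at different concentrations or buffers and across linkers. Negative Z-scores can be read as non-binding.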

Fuc(a1-2)Gal(b1-3)GalNAc = target: Fuc(a1-2)Gal(b1-3)GalNAc
Procedure, shortened: as §1

[1] = target: Fuc(a1-2)Gal(b1-3)GalNAc(a1-3)[Fuc(a1-2)]Gal(b1-4)Glc
Procedure, shortened: as §1

[2] = target: Fuc(a1-2)Gal(b1-3)GalNAc(a1-3)[Fuc(a1-2)]Gal(b1-4)GlcNAc
Procedure, shortened: as §1

[3] = target: Fuc(a1-2)Gal(b1-3)GalNAc(b1-3)Gal
Procedure, shortened: as §1

[4] = target: Fuc(a1-2)Gal(b1-3)GalNAc(b1-3)Gal(a1-4)Gal(b1-4)Glc
Procedure, shortened: as §1

[5] = target: Fuc(a1-2)Gal(b1-3)GalNAc(b1-4)[Neu5Ac(a2-3)]Gal(b1-4)Glc
Procedure, shortened: as §1

Fuc(a1-2)Gal(b1-3)GlcNAc = target: Fuc(a1-2)Gal(b1-3)GlcNAc
Procedure, shortened: as §1

[6] = target: Fuc(a1-2)Gal(b1-3)GlcNAc(b1-2)Man(a1-3)[Fuc(a1-2)Gal(b1-3)GlcNAc(b1-2)Man(a1-6)]Man(b1-4)GlcNAc(b1-4)GlcNAc
Procedure, shortened: as §1

[7] = target: Fuc(a1-2)Gal(b1-3)GlcNAc(b1-2)Man(a1-3)[Fuc(a1-2)Gal(b1-3)GlcNAc(b1-2)Man(a1-6)]Man(b1-4)GlcNAc(b1-4)[Fuc(a1-6)]GlcNAc
Procedure, shortened: as §1

[8] = target: Fuc(a1-2)Gal(b1-3)GlcNAc(b1-3)Gal(b1-4)Glc
Procedure, shortened: as §1

[9] = target: Fuc(a1-2)Gal(b1-3)GlcNAc(b1-3)GalNAc
Procedure, shortened: as §1

[10] = target: Fuc(a1-2)Gal(b1-3)GlcNAc(b1-3)[Fuc(a1-2)Gal(b1-3)GlcNAc(b1-6)]GalNAc
Procedure, shortened: as §1

[11] = target: Fuc(a1-2)Gal(b1-3)GlcNAc(b1-3)[Gal(b1-4)GlcNAc(b1-6)]Gal(b1-4)Glc
Procedure, shortened: as §1

[12] = target: Fuc(a1-2)Gal(b1-3)GlcNAc(b1-3)[Neu5Ac(a2-6)Gal(b1-4)GlcNAc(b1-6)]Gal(b1-4)Glc
Procedure, shortened: as §1

[13] = target: Fuc(a1-2)Gal(b1-3)GlcNAc6S
Procedure, shortened: as §1

[14] = target: Fuc(a1-2)Gal(b1-3)[Fuc(a1-4)]GlcNAc
Procedure, shortened: as §1

[15] = target: Fuc(a1-2)Gal(b1-3)[Fuc(a1-4)]GlcNAc(b1-2)Man(a1-3)[Fuc(a1-2)Gal(b1-3)[Fuc(a1-4)]GlcNAc(b1-2)Man(a1-3)]Man(b1-4)GlcNAc(b1-4)GlcNAc
Procedure, shortened: as §1

[16] = target: Fuc(a1-2)Gal(b1-3)[Fuc(a1-4)]GlcNAc(b1-2)Man(a1-3)[Fuc(a1-2)Gal(b1-3)[Fuc(a1-4)]GlcNAc(b1-2)Man(a1-6)]Man(b1-4)GlcNAc(b1-4)[Fuc(a1-6)]GlcNAc(b1-4)[Fuc(a1-6)]GlcNAc
Procedure, shortened: as §1

[17] = target: Fuc(a1-2)Gal(b1-3)[Fuc(a1-4)]GlcNAc(b1-3)[Fuc(a1-3)[Gal(b1-4)]GlcNAc(b1-6)]Gal(b1-4)Glc
Procedure, shortened: as §1

[18] = target: Fuc(a1-2)Gal(b1-3)[Fuc(a1-4)]GlcNAc(b1-3)[Gal(b1-4)GlcNAc(b1-6)]Gal(b1-4)Glc
Procedure, shortened: as §1

Fuc(a1-2)Gal(b1-4)Glc = target: Fuc(a1-2)Gal(b1-4)Glc
Procedure, shortened: as §1

Fuc(a1-2)Gal(b1-4)Glc6S = target: Fuc(a1-2)Gal(b1-4)Glc6S
Procedure, shortened: as §1

Fuc(a1-2)Gal(b1-4)GlcNAc = target: Fuc(a1-2)Gal(b1-4)GlcNAc
Procedure, shortened: as §1

[19] = target: Fuc(a1-2)Gal(b1-4)GlcNAc(b1-2)Man
Procedure, shortened: as §1

[20] = target: Fuc(a1-2)Gal(b1-4)GlcNAc(b1-2)Man(a1-3)[Fuc(a1-2)Gal(b1-4)GlcNAc(b1-2)Man(a1-6)]Man(b1-4)GlcNAc(b1-4)GlcNAc
Procedure, shortened: as §1

[21] = target: Fuc(a1-2)Gal(b1-4)GlcNAc(b1-2)Man(a1-3)[Fuc(a1-2)Gal(b1-4)GlcNAc(b1-2)Man(a1-6)]Man(b1-4)GlcNAc(b1-4)[Fuc(a1-6)]GlcNAc
Procedure, shortened: as §1

[22] = target: Fuc(a1-2)Gal(b1-4)GlcNAc(b1-2)[Fuc(a1-2)Gal(b1-4)GlcNAc(b1-4)]Man(a1-3)[Fuc(a1-2)Gal(b1-4)GlcNAc(b1-2)Man(a1-6)]Man(b1-4)GlcNAc(b1-4)GlcNAc
Procedure, shortened: as §1

[23] = target: Fuc(a1-2)Gal(b1-4)GlcNAc(b1-3)Gal(b1-4)GlcNAc
Procedure, shortened: as §1

[24] = target: Fuc(a1-2)Gal(b1-4)GlcNAc(b1-3)Gal(b1-4)GlcNAc(b1-2)Man(a1-3)[Fuc(a1-2)Gal(b1-4)GlcNAc(b1-3)Gal(b1-4)GlcNAc(b1-2)Man(a1-6)]Man(b1-4)GlcNAc(b1-4)GlcNAc
Procedure, shortened: as §1

[25] = target: Fuc(a1-2)Gal(b1-4)GlcNAc(b1-3)Gal(b1-4)GlcNAc(b1-3)Gal(b1-4)GlcNAc
Procedure, shortened: as §1

[26] = target: Fuc(a1-2)Gal(b1-4)GlcNAc(b1-3)GalNAc
Procedure, shortened: as §1

[27] = target: Fuc(a1-2)Gal(b1-4)GlcNAc(b1-3)[Fuc(a1-2)Gal(b1-4)GlcNAc(b1-6)]GalNAc
Procedure, shortened: as §1

[28] = target: Fuc(a1-2)Gal(b1-4)GlcNAc(b1-3)[Fuc(a1-3)[Gal(b1-4)]GlcNAc(b1-6)]Gal(b1-4)Glc
Procedure, shortened: as §1

[29] = target: Fuc(a1-2)Gal(b1-4)GlcNAc(b1-6)GalNAc
Procedure, shortened: as §1

[30] = target: Fuc(a1-2)Gal(b1-4)GlcNAc6S
Procedure, shortened: as §1

[31] = target: Fuc(a1-2)Gal(b1-4)[Fuc(a1-3)]GlcNAc
Procedure, shortened: as §1

[32] = target: Fuc(a1-2)Gal(b1-4)[Fuc(a1-3)]GlcNAc(b1-2)Man(a1-3)[Fuc(a1-2)Gal(b1-4)[Fuc(a1-3)]GlcNAc(b1-2)Man(a1-6)]Man(b1-4)GlcNAc(b1-4)[Fuc(a1-6)]GlcNAc
Procedure, shortened: as §1

[33] = target: Fuc(a1-2)Gal(b1-4)[Fuc(a1-3)]GlcNAc(b1-2)[Fuc(a1-2)Gal(b1-4)[Fuc(a1-3)]GlcNAc(b1-4)]Man(a1-3)[Fuc(a1-2)Gal(b1-4)[Fuc(a1-3)]GlcNAc(b1-2)Man(a1-6)]Man(b1-4)GlcNAc(b1-4)GlcNAc
Procedure, shortened: as §1

[34] = target: Fuc(a1-2)Gal(b1-4)[Fuc(a1-3)]GlcNAc(b1-3)Gal(b1-4)[Fuc(a1-3)]GlcNAc
Procedure, shortened: as §1

[35] = target: Fuc(a1-2)Gal(b1-4)[Fuc(a1-3)]GlcNAc(b1-3)Gal(b1-4)[Fuc(a1-3)]GlcNAc(b1-3)Gal(b1-4)[Fuc(a1-3)]GlcNAc
Procedure, shortened: as §1

[36] = target: Fuc(a1-2)Gal(b1-4)[Fuc(a1-3)]GlcNAc(b1-3)GalNAc
Procedure, shortened: as §1

[37] = target: Fuc(a1-2)Gal(b1-4)[Fuc(a1-3)]GlcNAc(b1-3)[Neu5Ac(a2-6)Gal(b1-4)GlcNAc(b1-6)]Gal(b1-4)Glc
Procedure, shortened: as §1

[38] = target: Fuc(a1-2)Gal3S(b1-4)GlcNAc
Procedure, shortened: as §1

[39] = target: Fuc(a1-2)Gal6S(b1-3)GlcNAc
Procedure, shortened: as §1

B1: Pwp6 (Candida glabrata) (protein)
chain: MGSSHHHHHHSSGLVPRGSHMASANLPKLTNICQIPDNVKKTSGFKGEIRRIGLFPPGGDYTYLLKFPSTGSTASDTISLTTKPQLSTSGWFPSLFGHTYFIKADLLVYMVAYFVPTETGEYTFKLVNSDDAAVMYVGNPSAFPCGSIDTWPEPRKEDINVCDKISASTKLYMEKGLAYPVRLVWYNGGGDGQFNAQFIDPSGTTHTDWNGYVWQYDACTDCDYK
Fuc(a1-2)Gal
  glycan array binding signal (z-score): -0.81
Fuc(a1-2)Gal(b1-3)GalNAc
  glycan array binding signal (z-score): -0.648
[1]
  glycan array binding signal (z-score): -0.553
[2]
  glycan array binding signal (z-score): -0.296
[3]
  glycan array binding signal (z-score): -0.077
[4]
  glycan array binding signal (z-score): -0.362
[5]
  glycan array binding signal (z-score): -0.318
Fuc(a1-2)Gal(b1-3)GlcNAc
  glycan array binding signal (z-score): -0.655
[6]
  glycan array binding signal (z-score): 1.22
[7]
  glycan array binding signal (z-score): -0.04
[8]
  glycan array binding signal (z-score): -0.524
[9]
  glycan array binding signal (z-score): -0.639
[10]
  glycan array binding signal (z-score): 0.205
[11]
  glycan array binding signal (z-score): -0.03
[12]
  glycan array binding signal (z-score): -0.443
[13]
  glycan array binding signal (z-score): -0.35
[14]
  glycan array binding signal (z-score): -0.605
[15]
  glycan array binding signal (z-score): 0.391
[16]
  glycan array binding signal (z-score): 0.128
[17]
  glycan array binding signal (z-score): -0.643
[18]
  glycan array binding signal (z-score): -0.19
Fuc(a1-2)Gal(b1-4)Glc
  glycan array binding signal (z-score): -0.645
Fuc(a1-2)Gal(b1-4)Glc6S
  glycan array binding signal (z-score): -0.477
Fuc(a1-2)Gal(b1-4)GlcNAc
  glycan array binding signal (z-score): -0.848
[19]
  glycan array binding signal (z-score): -0.012
[20]
  glycan array binding signal (z-score): -0.061
[21]
  glycan array binding signal (z-score): 0.09
[22]
  glycan array binding signal (z-score): 0.242
[23]
  glycan array binding signal (z-score): -0.704
[24]
  glycan array binding signal (z-score): 1.78
[25]
  glycan array binding signal (z-score): -0.691
[26]
  glycan array binding signal (z-score): -0.476
[27]
  glycan array binding signal (z-score): 0.027
[28]
  glycan array binding signal (z-score): 0.018
[29]
  glycan array binding signal (z-score): 0.48
[30]
  glycan array binding signal (z-score): -0.814
[31]
  glycan array binding signal (z-score): -0.497
[32]
  glycan array binding signal (z-score): 1.11
[33]
  glycan array binding signal (z-score): 0.133
[34]
  glycan array binding signal (z-score): -0.557
[35]
  glycan array binding signal (z-score): -0.241
[36]
  glycan array binding signal (z-score): -0.201
[37]
  glycan array binding signal (z-score): -0.26
[38]
  glycan array binding signal (z-score): -0.759
[39]
  glycan array binding signal (z-score): -0.595
